PubChem BioAssay AID602313 (National Center for Advancing Translational Sciences (NCATS), 2012)
The campaign covered roughly 390,000 compounds. About 760 (0.19%) were called active. Inconclusive means that the source gave no clear call. Such entries were picked first, then a sample of the others. Calls come from the whole dose curve; as a rule, active = well fitted inhibition curve with a large enough effect; inconclusive = small, poorly fitted or top-dose-only effect; inactive = flat fitted curve, though single readings scatter. Potencies of inconclusive entries are doubtful fits and often do not repeat.

Experiment: qHTS for Inhibitors of Vif-A3F Interactions: qHTS; note: nearly all actives have a fitted effect of over 65% in size; for activity, negative = active: % of control where 0% means no effect
Conditions: HeLa A3F-eYFP + Vif (tagged APOBEC3F with the HIV-1 protein that degrades it), YFP fluorescence increase; series mostly up to 46.1 µM; activity, negative = active: at the top concentration
How it was run: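 HeLa cells stably expressing Vif plus C-terminally eYFP-tagged A3F were seeded, incubated overnight at 37 deg C, dosed with compound, incubated overnight again at 37 deg C. Yellow fluorescence (Ex 488/Em 500-530) reported blocked Vif-mediated A3F-eYFP degradation.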
Potency is the fitted concentration of half-maximal effect.

| Structure (SMILES) | activity, negative = active | Potency |
| --- | --- | --- |
| COC(=O)C1=CC(C(=O)c2cccs2)=NN(c2ccc(OC)cc2)C1C(=O)OC (centres undefined) | inactive: 4.72% | – |
| CC(=O)Nc1ccc(C(F)(F)F)cc1Cl | – | inconclusive: 35.5 µM [inhibitor, single point] |
| Cc1ccc(C(=O)COC(=O)c2ccc3c(c2)C(=O)N(c2cccc4ncccc24)C3=O)cc1C | – | inconclusive: 22.4 µM [inhibitor, single point] |
| COc1cc(/C=C(/C#N)c2nc3ccccc3[nH]2)ccc1OC(=O)c1ccco1 | – | inconclusive: 25.1 µM [inhibitor, single point] |
| CS(=O)(=O)NNC(=O)c1cc2cc3ccccc3nc2s1 | – | inconclusive: 2.82 µM [inhibitor, single point] |
| CCOC(=O)c1c(NC(=O)CC2Nc3ccccc3NC2=O)sc(C)c1C (centres undefined) | – | inconclusive: 12.6 µM [inhibitor, partial curve, poor fit] |
| Cc1ccc(OCC(=O)Nc2ccc(N(C)C)cc2)cc1 | inactive: 4.28% | – |
| Cc1cccc(-c2ocnc2C(=O)Nc2ccccc2NC(=O)c2ccccn2)c1 | – | inconclusive: 3.55 µM [inhibitor, full curve, poor fit] |
| Cc1ccc(Cl)cc1NC(=O)CSC(N)=O | inactive: 3.74% | – |
| Cc1ccc(Cc2c(-c3ccc(Cl)cc3)nc3ccc(Cl)cn23)cc1 | – | inconclusive: 15.8 µM [inhibitor, single point] |
| O=C(Cc1ccccc1)Nc1ccc2c(c1)OC1(CCCC1)O2 | inactive: -1.07% | – |
| O=C(Cc1n[nH]c(=O)c2ccccc12)OCC(=O)c1ccc2c(c1)OCCO2 | inactive: -7.15% | – |
| Cc1ccc(NC(=O)CSc2nc3n[nH]c(C)c3c(=N)n2-c2cccc(C)c2)cc1 | – | inconclusive: 35.5 µM [inhibitor, single point] |
| CCSc1ncc(Cl)c(C(=O)Nc2ccc(S(=O)(=O)N(C)c3ccccc3)cc2)n1 | inactive: -2.79% | – |
| O=C(Cc1ccc(F)cc1)NCCS(=O)(=O)N1CCN(c2cccc(Cl)c2)CC1 | – | inconclusive: 2.82 µM [inhibitor, partial curve, poor fit] |
| OCC1(Cc2ccccc2F)CCCN(Cc2c(F)ccc(F)c2F)C1 (centres undefined) | – | inconclusive: 3.16 µM [inhibitor, full curve] |
| C=CCn1c(C)cc(/C([O-])=C(/C(=S)Nc2ccc(OC(F)F)cc2)[n+]2ccc(N(C)C)cc2)c1C | – | inconclusive: 11.2 µM [inhibitor, partial curve] |
| CCOC(=O)Cn1c(=O)c(-c2cc(Br)ccc2N)nc2ccccc21 | – | active: 11.2 µM |
| CS(=O)(=O)c1cccc(C(=O)Nc2cccc(-c3nc4ccccc4[nH]3)c2)c1 | – | inconclusive: 2.51 µM [inhibitor, partial curve, poor fit] |
| Cc1ccc2c(c1)c1ccc3c(c1n2C)C(=O)C=CC3=O | – | inconclusive: 3.98 µM [inhibitor, single point] |
| COc1ccc(CN(C)CC(=O)Nc2ccccc2C(=O)NC2CC2)cc1OC | – | inconclusive: 35.5 µM [inhibitor, single point] |
| Cc1ccc(C(=O)Cn2nnc(-c3ccccc3)n2)cc1 | – | inconclusive: 11.2 µM [inhibitor, single point] |
| COc1ccc(N=CC2=C(O)c3ccccc3C2=O)cc1 | – | inconclusive: 3.16 µM [inhibitor, single point] |

| Structure (SMILES) | activity, negative = active | Potency |
| --- | --- | --- |
| COc1cc2c(cc1OC)CN(C(=O)/C=C/c1ccc([N+](=O)[O-])cc1)CC2 | inactive: 1.66% | – |
| N=c1c2c(ncn1Cc1ccco1)Oc1cc(O)ccc1C2c1ccccc1 (centres undefined) | – | inconclusive: 35.5 µM [inhibitor, single point] |
| COc1cccc(-c2ccc3c(N)c(C(=O)c4ccc(Cl)cc4)sc3n2)c1 | – | inconclusive: 7.08 µM [inhibitor, partial curve, poor fit] |
| Cc1c(C(=O)Nc2ccc3c(c2)CCC3)cccc1[N+](=O)[O-] | – | inconclusive: 0.562 µM [inhibitor, full curve, poor fit] |
| O=C(Nc1nc2n(n1)C(c1ccccc1)C=C(c1ccccc1)N2)c1ccc(Cl)c([N+](=O)[O-])c1 (centres undefined) | – | inconclusive: 22.4 µM [inhibitor, single point] |
| CCc1ccc(CNC(=O)c2cnc3sc4cc(OC)ccc4n3c2=O)cc1 | inactive: -3.04% | – |
| Cc1ccc(/C=C/c2ccc(N(C)C)cc2)[n+](C)c1 | – | inconclusive: 22.4 µM [inhibitor, partial curve, poor fit] |
| O=C(C[n+]1ccn(-c2ccccc2)c1)c1ccc([N+](=O)[O-])cc1 | inactive: 0.271% | – |
| CC1CCN(c2ccc3c(c2)S(=O)(=O)c2cccc(C(=O)NC4CCCCC4)c2C3=O)CC1 | – | inconclusive: 15.8 µM [inhibitor, partial curve, poor fit] |
| O=C(O)C1CSC2(c3ccc(Br)cc3)CCC(=O)N12 (centres undefined) | – | inconclusive: 5.62 µM [inhibitor, single point] |
| CC(=NNC(=S)N1CC2CCC(CC2)C1)c1ccccn1 | – | inconclusive: 3.55 µM [inhibitor, partial curve, poor fit] |
| COc1ccccc1CC(=O)Nc1cccc2c1CCCC2 | – | inconclusive: 2.24 µM [inhibitor, partial curve, poor fit] |
| CCCC#Cc1cnc2c(c1)C(=O)N([C@H](C)CO)C[C@@H](C)[C@@H](CN(C)C(=O)Nc1cccc(F)c1)O2 | – | inconclusive: 6.31 µM [inhibitor, single point] |
| COc1ccc2cc(C(=O)C3CCCN(Cc4ccccn4)C3)ccc2c1 (centres undefined) | – | active: 28.2 µM |
| NS(=O)(=O)c1ccc(N2N=C(c3ccccc3)CC2c2cccc(F)c2)cc1 (centres undefined) | inactive: 0.554% | – |
| COc1ccc(NS(=O)(=O)c2cc(NC(=O)c3ccc(S(=O)(=O)N(C)C)cc3)ccc2N2CCOCC2)cc1 | – | inconclusive: 35.5 µM [inhibitor, single point] |
| COc1ccc(-c2noc(CCCC(=O)N3CCN(c4cc(C)ccc4C)CC3)n2)cc1 | inactive: 5.42% | – |
| C=CCNC(=O)c1onc(CCl)c1C(=O)OC | inactive: 2.53% | – |
| O=C(Nc1ccc2oc(-c3cccnc3)nc2c1)c1ccc(-c2ccc(OC(F)(F)F)cc2)o1 | inactive: 1.33% | – |
| COc1cccc(-c2nc(SC)nc3sc(C(=O)NC(C)(C)C)c(N)c23)c1 | – | inconclusive: 35.5 µM [inhibitor, single point] |
| O=C(Nc1ccc(S(=O)(=O)N2CCOCC2)cc1)c1ccc(Cl)c([N+](=O)[O-])c1 | inactive: 1.56% | – |
| Nn1c(SCC(=O)Nc2cccnc2Cl)nnc1-c1ccccc1 | inactive: -24.7% | – |
| COc1cc(/C=C2/SC(=S)N(C)C2=O)ccc1OC(=O)c1ccco1 | – | inconclusive: 2.24 µM [inhibitor, partial curve, poor fit] |

3 entries out of the list, arranged by number of heavy atoms, largest number first.

| Structure (SMILES) | activity, negative = active | Potency |
| --- | --- | --- |
| COc1ccc(-c2noc(CCCC(=O)N3CCN(c4cc(C)ccc4C)CC3)n2)cc1 | inactive: 5.42% | – |
| COc1ccc2cc(C(=O)C3CCCN(Cc4ccccn4)C3)ccc2c1 (centres undefined) | – | active: 28.2 µM |
| C=CCNC(=O)c1onc(CCl)c1C(=O)OC | inactive: 2.53% | – |

Further structures.

| Structure (SMILES) | activity, negative = active | Potency |
| --- | --- | --- |
| Cc1[nH]c2ccccc2c1C(C[N+](=O)[O-])c1ccco1 (centres undefined) | – | inconclusive: 17.8 µM [inhibitor, single point] |
| COc1ccc(C(=O)NCc2nnc(SCC(=O)Nc3ccccc3)n2-c2ccccc2)cc1 | inactive: 0.285% | – |
| O=C(Oc1c(-c2ccco2)oc2ccccc2c1=O)c1cccnc1 | – | inconclusive: 0.631 µM [inhibitor, full curve, poor fit] |
| Cc1cc(C)nc(-n2nc(C)cc2NC(=O)c2ccc(F)cc2F)n1 | – | active: 12.6 µM |
| Nc1c(C(=O)c2cccs2)sc2nsc(SCCN3CCCCC3)c12 | – | inconclusive: 2.51 µM [inhibitor, partial curve, poor fit] |
| C=CCNC(=S)N/N=C/c1ccc(C)cc1C | – | inconclusive: 3.16 µM [inhibitor, full curve, poor fit] |
| O=C(Cn1c(=O)c2ccccc2n(CC(=O)Nc2ccc(F)cc2F)c1=O)NCCc1ccccc1 | – | inconclusive: 35.5 µM [inhibitor, single point] |
| COc1ccc(N(C(C)C(=O)NC2CCCCCC2)S(C)(=O)=O)cc1 (centres undefined) | inactive: 3.06% | – |
| O=C(NC(=S)NN1CCCCC1c1cccnc1)c1ccc(Br)cc1 (centres undefined) | – | inconclusive: 35.5 µM [inhibitor, single point] |
| O=C(N=c1ccn(-c2nc3ccccc3nc2NS(=O)(=O)c2ccc(Cl)cc2)cc1)c1cccs1 | – | active: 7.94 µM |
| CC(C)Sc1nc2c(c(=O)[nH]c(=O)n2C)n1Cc1ccccc1 | – | inconclusive: 14.1 µM [inhibitor, single point] |
| CCCCc1ccc(NC(=S)N2CCCC(C)C2)cc1 (centres undefined) | – | inconclusive: 35.5 µM [inhibitor, single point] |
| Cc1ccc(C)c(NC(=S)NNC(=O)c2ccc(Br)o2)c1 | – | inconclusive: 6.31 µM [inhibitor, single point] |
| CCCc1cc(=O)n2nc(N3CCC(C(=O)NCc4ccco4)CC3)sc2n1 | inactive: 0.45% | – |
| CC(C)(C)c1ccc(C(=O)Nc2ccc(F)cc2)s1 | inactive: -8.77% | – |
| CC1(C)CC(=O)C2=C(C1)NC(Nc1nc3ccccc3o1)=NC21CCCC1 | inactive: -3.16% | – |
| CCOc1cccc(=O)c2c(C)oc(C)c12 | – | inconclusive: 7.94 µM [inhibitor, partial curve, poor fit] |
| Cc1cccc(-n2c(CCn3nc(C)c([N+](=O)[O-])c3C)n[nH]c2=S)c1 | inactive: -1.97% | – |
| COc1ccc(Cl)cc1NC(=O)Cn1c(=O)n(CCC(=O)NCc2ccc3c(c2)OCO3)c(=O)c2ccccc21 | – | inconclusive: 35.5 µM [inhibitor, single point] |
| CCN(CC)c1ccc(/C=C2\SC(N)=NC2=O)cc1 | – | inconclusive: 7.94 µM [inhibitor, partial curve, poor fit] |
| Fc1ccc(N2CCN(Cc3ccccn3)CC2)cc1 | inactive: 8.69% | – |
| CCCCC(=O)NC(c1ccc(C(C)C)cc1)c1ccc2cccnc2c1O (centres undefined) | inactive: -2.6% | – |
| COc1ccccc1[C@H]1C(c2ccc(F)cc2)=NN(c2ccccc2)[C@@H]1CO | – | inconclusive: 35.5 µM [inhibitor, single point] |
